System: nerve injury-induced mechanical pain hypersensitivity
Assay: Spinal Nerve Ligation (SNL) model, paw pressure test
Format: in vivo, rat
Conditions: Method 1; no experimental details given
Excerpt: The chronic Spinal Nerve Ligation model, which involves a tight ligation of the L5 and/or L6 spinal nerves with silk thread as previously described in Kim and Chung (Pain, 1992, 50: 355-363 is a model on rat, illustrated in Example 3 herein after, well known to the person skilled in the art.
Adult Sprague Dawley rats (300-340 gr) (Janvier LABS, Le Genest Saint-Isle, France) were used according to the guidelines of the International Association for the Study of Pain. Rats were housed in cages with a 12/12 hr light/dark cycle and fed food and water ad libitum. Behavioral responsiveness of the rats was tested following ten days of habituation to the testing environment and the observer. Left side L5 spinal nerve was injured as described by Kim and Chung (1992) Pain 50, 355-363. Anesthesia was induced and maintained with isoflurane. A midline incision was made at the L3-S2 level and the dorsal vertebral column from L4 to S2 was exposed. […] After surgery, the posture of the sham-operated and SNL rats was closely monitored before they were used in different experiments.
Mechanical hyperalgesia was measured as the threshold to a noxious mechanical stimulus. Nociceptive thresholds (NT) were determined in handled rats by a modification of the Randall-Selitto method (Kayser et al., Brain Res 1990; 508:329-332). […] A 600-g cut-off value was determined to prevent tissue damage. […]

CO[C@@H]1[C@H](N(C)C(=O)c2ccccc2)C[C@H]2O[C@]1(C)n1c3ccccc3c3c4c(c5c6ccccc6n2c5c31)C(=O)NC4 [Midostaurin]
maximal inhibition on the SNL model in rat (dose): 4 mg/kg
